Laboratory results: publication PMC11009230
No constants are given. Whether binding was seen depends on the method and setting. In cells and extracts the contact can be indirect. Some binding calls cover weakened binding; strength is not graded here.

Chains of the proteins cited; added tags and fusions are not shown.
UniProt O75317: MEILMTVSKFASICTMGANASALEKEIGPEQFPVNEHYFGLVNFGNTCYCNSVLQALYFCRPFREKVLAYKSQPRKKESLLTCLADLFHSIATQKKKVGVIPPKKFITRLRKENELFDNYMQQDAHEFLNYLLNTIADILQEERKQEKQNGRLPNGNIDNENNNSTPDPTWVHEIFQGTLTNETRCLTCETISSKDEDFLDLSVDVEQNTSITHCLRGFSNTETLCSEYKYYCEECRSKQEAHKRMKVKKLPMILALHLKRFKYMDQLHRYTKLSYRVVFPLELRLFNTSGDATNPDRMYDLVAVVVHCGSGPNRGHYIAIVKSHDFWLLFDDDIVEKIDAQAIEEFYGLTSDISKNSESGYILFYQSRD
UniProt P46937: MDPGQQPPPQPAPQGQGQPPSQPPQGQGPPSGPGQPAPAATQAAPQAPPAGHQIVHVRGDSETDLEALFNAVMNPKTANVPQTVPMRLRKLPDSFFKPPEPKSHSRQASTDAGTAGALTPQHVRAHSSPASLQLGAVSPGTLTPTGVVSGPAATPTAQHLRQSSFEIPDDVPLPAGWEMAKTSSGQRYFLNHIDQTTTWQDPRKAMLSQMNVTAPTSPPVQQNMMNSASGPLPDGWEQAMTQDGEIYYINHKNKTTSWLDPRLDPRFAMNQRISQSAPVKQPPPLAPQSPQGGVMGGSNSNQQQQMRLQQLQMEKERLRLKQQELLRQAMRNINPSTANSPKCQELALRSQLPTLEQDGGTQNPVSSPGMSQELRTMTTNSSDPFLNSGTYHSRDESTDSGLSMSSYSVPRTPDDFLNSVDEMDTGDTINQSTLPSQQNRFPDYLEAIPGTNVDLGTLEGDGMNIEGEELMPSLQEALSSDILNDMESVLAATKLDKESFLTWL

Legend:
[1] = biological target: USP12 (Ubiquitin Specific Peptidase 12) (human (endogenous in AGS)) (UniProt O75317); assay: co-IP; endogenous proteins in AGS cell lysate (Co-IP cell lysis buffer with protease inhibitors); precipitated overnight at 4 °C with anti-YAP or anti-USP12 antibody or IgG and protein A/G agarose; precipitates examined by immunoblotting
[2] = biological target: YAP (human (endogenous in AGS)) (UniProt P46937); assay: as above

Row | binding [1] | binding [2] | Substance
1 | binds |  | YAP (from UniProt P46937 1-504)
2 |  | binds | USP12 (Ubiquitin Specific Peptidase 12) (from UniProt O75317 1-370) (enzyme)
